For the test, the target named is T1, MICB expressed on the membrane of CHO cells (human) (UniProt Q29980).
T1 sequence (looked up): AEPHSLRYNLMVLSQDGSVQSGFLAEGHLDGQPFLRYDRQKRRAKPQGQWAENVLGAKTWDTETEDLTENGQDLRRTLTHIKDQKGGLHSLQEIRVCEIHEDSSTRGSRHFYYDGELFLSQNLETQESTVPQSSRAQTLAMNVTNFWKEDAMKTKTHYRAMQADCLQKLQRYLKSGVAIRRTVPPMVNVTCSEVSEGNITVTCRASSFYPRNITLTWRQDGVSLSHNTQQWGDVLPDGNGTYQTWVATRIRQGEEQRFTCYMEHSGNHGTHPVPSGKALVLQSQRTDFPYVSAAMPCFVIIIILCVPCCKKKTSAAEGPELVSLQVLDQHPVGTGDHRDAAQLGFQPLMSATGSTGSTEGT
In words: binding of biotinylated protein to transfected CHO cells (FIG. 1C).

Amino acid sequences for entries named in this document (tags omitted). Residues count along the entry.
UniProt P26718, residues 73-216: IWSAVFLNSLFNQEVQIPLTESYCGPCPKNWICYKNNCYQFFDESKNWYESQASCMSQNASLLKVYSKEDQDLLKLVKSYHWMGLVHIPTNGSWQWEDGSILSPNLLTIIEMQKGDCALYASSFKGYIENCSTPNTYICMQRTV

Results are given in words; binding and its absence hold for the method and conditions named. Some results given as binding are weak or reduced against the parent protein; the word gives no strength.

As to “biotinylated extracellular domain of NKG2D (from UniProt P26718 73-216) (receptor)”, the binding entry is given as “binds”.

Source of the values: patent publication US20250230246A1.
